≈ marks a conversion by molar mass, not a printed value.
Key:
Experiment in all cases: broth microdilution MIC (CLSI)
Format in all cases: cell-based
[1] = system: S. epidermidis NRS7 vancomycin intermediate; details: Staphylococcus epidermidis, NRS7, read-out: Antibacterial activity (MIC)
Description: (§1) Using a broth microdilution assay according to Clinical Laboratory Standards Institute (CSLI) guidelines, we tested 5-(2,5-bis(4-chloro-2-isopropylphenyl)thiophen-3-yl)-1H-tetrazole (“Test Article” in below table) to establish MICs against a broad range of MDR bacteria and noted substantive activity versus methicillin-resistant Staphylococcus aureus (MRSA), vancomycin-resistant Enterococcus (VRE) and Streptococcus spp. Antimicrobial susceptibility testing was performed by a microdilution broth assay according to CLSI guidelines. The inoculum was prepared from stationary-phase cultures diluted in water. Microtiter plate wells received aliquots of 100 μL of the compound diluted in Mueller-Hinton II cation adjusted media. The final concentration of compound typically ranged from 250 to 0.125 μg/ml in serial two-fold dilutions. In addition to the test compound, growth and sterility controls were included, along with DMSO vehicle control rows. The microtiter plates were inoculated with 5×10^5 bacteria and incubated overnight at 35° C. in a humidified atmosphere.

[2] = system: E. faecalis ATCC51599 vancomycin resistant; details: Enterococcus faecalis, ATCC51599, read-out: Antibacterial activity (MIC)
Description: as §1

[3] = system: E. faecium ATCC51299 vancomycin resistant; details: Enterococcus faecium, ATCC51299, read-out: Antibacterial activity (MIC)
Description: as §1

`CN[C@H](CC(C)C)C(=O)N[C@H]1C(=O)N[C@@H](CC(N)=O)C(=O)N[C@H]2C(=O)N[C@H]3C(=O)N[C@H](C(=O)N[C@H](C(=O)O)c4cc(O)cc(O)c4-c4cc3ccc4O)[C@H](O)c3ccc(c(Cl)c3)Oc3cc2cc(c3O[C@@H]2O[C@H](CO)[C@@H](O)[C@H](O)[C@H]2O[C@H]2C[C@](C)(N)[C@H](O)[C@H](C)O2)Oc2ccc(cc2Cl)[C@H]1O` [vancomycin, reference compound] was tested, and the MIC [1] was 4 µg/mL (≈ 2.76 µM), the MIC [2] was > 16 µg/mL and the MIC [3] was > 16 µg/mL.

From US12358902B2, “5-(2,5-bis(4-chloro-2-isopropylphenyl)thiophen-3-yl)-1H-tetrazole for the topical treatment of bacterial infections” (DENOVAMED INC., priority 2017, dated 2025)
